Some of these results come from one statement about several compounds together.
Assay: Absorption and fluorescence emission spectra of the dyes in solvent
Type: physicochemical
Details: absorption vs emission spectra
Protocol: Absorption spectra were recorded on a Beckman Coulter DU 640 UV-visible spectrophotometer (Brea, CA) and fluorescence spectra were recorded on a Fluorolog-3 spectrofluorometer (Horiba Jobin Yvon, Inc., Edison, NJ). All fluorescence measurements were conducted at room temperature and were recorded at excitation of 700 nm and emission scan from 715-900 nm.

With `O=c1cc2/c(=C/C=C/C=C/c3c4c5c(cc(O)cc5oc3=O)OC(O)=C4)c(=O)oc3cc(O)cc(o1)c32` [Dye 4] the “Stoke's shift” value was 10-15 nm.

Reference: patent publication US20250099626A1, “COMPOSITIONS AND METHODS FOR OXONOL DYES WITH NEAR INFRARED FLUORESCENCE” (Washington University, priority 2023, published 2025)
